# Source: article PMC5559459
# By UniProt entry, the sequences of proteins in these tests, tags left out. Residues count along the entry.
# UniProt O00206, residues 24-631: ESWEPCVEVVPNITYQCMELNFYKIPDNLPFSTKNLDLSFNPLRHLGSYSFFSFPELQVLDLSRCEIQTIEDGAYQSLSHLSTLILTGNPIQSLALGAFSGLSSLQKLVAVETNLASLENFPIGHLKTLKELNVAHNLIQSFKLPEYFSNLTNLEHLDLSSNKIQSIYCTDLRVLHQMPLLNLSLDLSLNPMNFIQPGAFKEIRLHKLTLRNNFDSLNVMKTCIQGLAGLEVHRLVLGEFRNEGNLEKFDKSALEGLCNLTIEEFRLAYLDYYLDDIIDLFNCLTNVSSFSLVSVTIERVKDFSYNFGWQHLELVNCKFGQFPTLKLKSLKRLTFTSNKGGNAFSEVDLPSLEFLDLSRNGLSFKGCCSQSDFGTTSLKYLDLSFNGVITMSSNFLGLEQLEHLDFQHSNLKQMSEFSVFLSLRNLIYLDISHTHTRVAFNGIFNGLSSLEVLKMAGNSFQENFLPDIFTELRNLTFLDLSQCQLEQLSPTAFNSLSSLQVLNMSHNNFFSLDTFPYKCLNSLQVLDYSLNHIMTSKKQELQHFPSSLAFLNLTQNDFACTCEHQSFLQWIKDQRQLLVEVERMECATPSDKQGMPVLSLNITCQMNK
# UniProt Q8IWL2, residues 21-248: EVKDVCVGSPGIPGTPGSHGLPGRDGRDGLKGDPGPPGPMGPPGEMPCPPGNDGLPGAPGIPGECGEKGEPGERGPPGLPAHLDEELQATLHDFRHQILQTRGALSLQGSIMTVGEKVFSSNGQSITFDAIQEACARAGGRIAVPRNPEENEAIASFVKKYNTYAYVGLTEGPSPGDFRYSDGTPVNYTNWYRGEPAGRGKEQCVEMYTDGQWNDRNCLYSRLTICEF
# No constants are given. Whether binding was seen depends on the method and setting. Some binding calls cover weakened binding; strength is not graded here.
# Molecular target: recombinant human TLR4 (hTLR4) (human) (UniProt O00206)
# Assay: ELISA; 500 ng hTLR4 coated on 96-well plates; 5 μg SP-A in 10 mM HEPES pH 7.4, 0.15 M NaCl, 5 mM CaCl2, 2% fatty acid-free BSA, 37 °C, 5 h; detected with anti-human SP-A polyclonal antibody and HRP anti-rabbit IgG; background (vehicle) subtracted; both purified
substance,measurement,value
"recombinant human surfactant protein A (hSP-A), unmodified (from UniProt Q8IWL2 21-248)",binding,binds
